This is one part of the list.
What follows are compounds tested on T1, CTL2-GFP (C. trachomatis L2/434/Bu, GFP-expressing). Conditions: bulk GFP, single well; 28.5 h, 10 µM; inhibitor.
T1 construct: L2/434/Bu, GFP-expressing
Set-up: species or system HeLa; Intracellular C. trachomatis growth in HeLa cells, bulk GFP fluorescence relative to DMSO

Compound | % of control remaining [%]
CC(=O)N1CCC(Cn2nc(-c3ccc(F)cc3)ccc2=O)CC1 [CBK282406] | 127.83
O=C(Nc1ccc(O)cc1)c1cnc(-c2ccc(Cl)cc2)c(-c2cccnc2)c1 [CBK037516] | 184.535
CCN1CCCCC1CNC(=O)Cn1nc(C)cc1C (stereo not shown) [CBK282057] | 109.75
O=C(C[C@@H]1O[C@H](CNS(=O)(=O)c2ccccc2)[C@@H](O)[C@H]1O)N1CCCC1 [CBK288909] | 128.278
CN(Cc1ccccc1)c1nccnc1-c1cccnc1 [CBK037414] | 100
COC(=O)c1ccc(NC(=O)c2ccccc2-c2ccccc2C(=O)O)cc1 [CBK265759] | 87.2085
Cc1nc(C)c(S(=O)(=O)Nc2ccccc2-c2nnnn2C(C)C)s1 [CBK305508] | 129.734
CCN(CC)C(=O)C1CCCN(C(=O)NCc2ccc3c(c2)OCO3)C1 (stereo not shown) [CBK156121] | 115.833
Nc1c(-c2cccc(C(F)(F)F)c2)cnc2cccnc12 [CBK081187] | 111.91
COc1cccc(NC(=O)CSc2ccc(Cl)cc2)c1 [CBK263811] | 114.548
Cc1cc(F)c(S(N)(=O)=O)cc1NC(=O)c1ccc(C(F)(F)F)cc1 [CBK051448] | 106.658
O=C1CC(C(=O)Nc2ccccc2)NC(Nc2cc(Cl)cc(Cl)c2)=N1 (stereo not shown) [CBK268752] | 110.542
O=C(C1=C(O)C(=O)N(CCCN2CCOCC2)C1c1cccs1)c1cccs1 (stereo not shown) [CBK264533] | 114.356
O=C1CCCN1c1ccc(S(=O)(=O)NCC2CC3CCC2C3)cc1 (stereo not shown) [CBK282841] | 95.099
Cn1c(C(=O)NCCc2cnccn2)cc2cc(Cl)ccc21 [CBK281575] | 93.1898
Cc1ccc2nc(COC(=O)c3cc(-c4ccccc4)nn3-c3ccccc3)cc(=O)n2c1 [CBK296959] | 154.622
Cc1nn(C)cc1-c1cncn1C(C)c1ccc2c(c1)CCCO2 (stereo not shown) [CBK281798] | 112.72
CCOc1ccc(Oc2nc(N(C)C)nc(N3CCOCC3)n2)nn1 [CBK269585] | 97.3603
COc1nc(NCCc2ccc(OC)c(OC)c2)nc(OC)n1 [CBK266304] | 162.357
CCOCCCC(=O)N1CCn2c(nnc2-c2cncc(Br)c2)C1 [CBK304764] | 143.919
c1ccc2c(c1)OCc1nnc(CCN3CCCCC3)n1-2 [CBK005285] | 154.999
c1ccc(N2CCN(c3nc(-c4ccoc4)cn4ccnc34)CC2)nc1 [CBK066522] | 110.948

Taken from above.
Entry of O=C(Nc1ccc(O)cc1)c1cnc(-c2ccc(Cl)cc2)c(-c2cccnc2)c1 [CBK037516] under % of control remaining [%]: 184.535
Entry of COc1cccc(NC(=O)CSc2ccc(Cl)cc2)c1 [CBK263811] under % of control remaining [%]: 114.548

Reference: publication PMC12040169 (PLOS Biology, 2025)
